Data from paper PMC4525183, “Snf1/AMP-activated protein kinase activates Arf3p to promote invasive yeast growth via a non-canonical GEF domain” (Nature Communications, 2015).
No constants are given. Whether binding was seen depends on the method and setting. In cells and extracts the contact can be indirect. A yes stands for co-enrichment or nearness to the bait. Other partners may have been found. Blank lines part the entries; values can stand above or below the molecule they belong to.

The chains behind the UniProt entries cited, without tags or fusion partners.
UniProt P11075: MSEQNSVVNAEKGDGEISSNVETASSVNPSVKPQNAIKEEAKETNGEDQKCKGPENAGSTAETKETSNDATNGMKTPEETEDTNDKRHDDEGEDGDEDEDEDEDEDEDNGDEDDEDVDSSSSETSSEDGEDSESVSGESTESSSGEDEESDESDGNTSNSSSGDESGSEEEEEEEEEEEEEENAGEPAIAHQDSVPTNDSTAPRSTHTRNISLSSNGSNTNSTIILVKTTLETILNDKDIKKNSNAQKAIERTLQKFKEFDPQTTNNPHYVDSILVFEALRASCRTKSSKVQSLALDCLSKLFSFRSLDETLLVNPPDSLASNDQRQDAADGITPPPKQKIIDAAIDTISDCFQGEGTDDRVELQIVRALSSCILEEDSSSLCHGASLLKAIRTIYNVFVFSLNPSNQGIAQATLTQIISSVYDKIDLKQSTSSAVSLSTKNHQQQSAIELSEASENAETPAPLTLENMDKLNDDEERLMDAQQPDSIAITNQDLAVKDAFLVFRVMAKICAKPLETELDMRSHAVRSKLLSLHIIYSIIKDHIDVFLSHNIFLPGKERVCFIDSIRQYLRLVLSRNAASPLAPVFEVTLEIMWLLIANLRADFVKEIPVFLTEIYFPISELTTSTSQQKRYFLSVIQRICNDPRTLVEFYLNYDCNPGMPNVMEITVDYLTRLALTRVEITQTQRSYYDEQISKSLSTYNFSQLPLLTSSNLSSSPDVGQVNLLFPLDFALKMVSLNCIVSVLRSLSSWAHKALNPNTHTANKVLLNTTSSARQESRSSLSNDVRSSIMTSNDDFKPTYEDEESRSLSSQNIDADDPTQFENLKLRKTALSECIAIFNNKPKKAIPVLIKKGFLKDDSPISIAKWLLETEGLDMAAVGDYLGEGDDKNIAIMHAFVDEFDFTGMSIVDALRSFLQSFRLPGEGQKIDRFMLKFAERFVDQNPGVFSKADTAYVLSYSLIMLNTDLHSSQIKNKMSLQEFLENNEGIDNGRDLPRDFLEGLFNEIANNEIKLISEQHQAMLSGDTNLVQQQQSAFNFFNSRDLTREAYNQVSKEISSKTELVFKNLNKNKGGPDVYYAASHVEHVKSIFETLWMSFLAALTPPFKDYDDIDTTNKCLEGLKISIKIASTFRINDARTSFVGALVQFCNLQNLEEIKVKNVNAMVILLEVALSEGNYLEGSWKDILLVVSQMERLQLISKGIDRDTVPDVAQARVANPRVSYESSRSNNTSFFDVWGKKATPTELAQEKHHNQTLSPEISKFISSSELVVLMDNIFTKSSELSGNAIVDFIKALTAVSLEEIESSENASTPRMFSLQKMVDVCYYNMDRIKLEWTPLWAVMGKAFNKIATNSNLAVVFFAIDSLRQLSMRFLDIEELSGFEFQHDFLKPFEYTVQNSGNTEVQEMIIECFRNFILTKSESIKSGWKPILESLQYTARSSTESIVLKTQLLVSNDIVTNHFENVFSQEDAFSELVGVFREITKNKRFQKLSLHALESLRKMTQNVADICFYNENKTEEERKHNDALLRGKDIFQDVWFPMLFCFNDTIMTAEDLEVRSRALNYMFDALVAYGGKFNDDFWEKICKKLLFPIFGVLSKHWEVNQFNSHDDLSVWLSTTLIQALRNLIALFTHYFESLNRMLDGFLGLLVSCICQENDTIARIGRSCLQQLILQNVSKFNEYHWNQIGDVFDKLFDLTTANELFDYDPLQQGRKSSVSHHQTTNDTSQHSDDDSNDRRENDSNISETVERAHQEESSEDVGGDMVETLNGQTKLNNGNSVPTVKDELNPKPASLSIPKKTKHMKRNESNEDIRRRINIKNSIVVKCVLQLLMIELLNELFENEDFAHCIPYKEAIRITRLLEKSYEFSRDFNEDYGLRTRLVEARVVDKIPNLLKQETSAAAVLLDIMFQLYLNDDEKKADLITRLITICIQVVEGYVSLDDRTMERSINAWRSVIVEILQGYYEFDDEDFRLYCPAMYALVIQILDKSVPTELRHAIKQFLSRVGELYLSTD

Molecular target: T1, dominant-negative GDP-bound Arf3p^T31N (bait used to capture potential GEFs) (S. cerevisiae) (UniProt P40994)
T1 sequence: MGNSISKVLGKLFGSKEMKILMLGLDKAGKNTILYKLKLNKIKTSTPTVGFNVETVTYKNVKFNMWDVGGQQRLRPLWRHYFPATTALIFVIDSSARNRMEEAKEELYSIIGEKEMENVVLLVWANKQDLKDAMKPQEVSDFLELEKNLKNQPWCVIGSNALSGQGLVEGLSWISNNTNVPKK
Assay: affinity purification with mass spectrometry; dominant-negative GDP-bound Arf3p T31N used to capture potential GEFs from lysates of starved yeast

binding: binds
Molecule: Sec7p (from UniProt P11075 1-2009)

binding: binds
B1: Gea1p (protein, UniProt P47102 1-1408)
chain: MHDVPMETVLAVNPATMIVKECINLCSAMNKQSRDKSQTSVAALLGGGSDIFLSQSDSFVDSFHNLPTSSYHDPLISGLVQLRLKINDLKGLDSLNALELLKPFLEIVSASSVSGYTTSLALDSLQKVFTLKIINKTFNDIQIAVRETVVALTHCRFEASKQISDDSVLLKVVTLLRDIITSSFGDYLSDTIIYDVLQTTLSLACNTQRSEVLRKTAEVTIAGITVKLFTKLKLLDPPTKTEKYINDESYTDNNLKDDIIGTTTSDNDLSSTDDDSAVADDNKNEKPVQQVIREQENDEETAEKAENVEPNYGITVIKDYLGLLLSLVMPENRMKHTTSAMKLSLQLINAAIEISGDKFPLYPRLFSLISDPIFKSVLFIIQSSTQYSLLQATLQLFTSLVVILGDYLPMQIELTLRRIFEILEDTTISGDVSKQKPPAIRELIIEQLSILWIHSPAFFLQLFVNFDCNLDRSDLSIDFIKELTKFSLPAAAVNTSNNIPPICLEGVLSLIENIYNDLQRFDRAEFVKNQKEIDILKQRDRKTEFILCVETFNEKAKKGIQMLIEKGFIDSDSNRDIASFLFLNNGRLNKKTIGLLLCDPKKTSLLKEFIDLFDFKGLRVDEAIRILLTKFRLPGESQQIERIVEAFSSKYSADQSNDKVELEDKKAGKNGSESMTEDDIIHVQPDADSVFVLSYSIIMLNTDSHNPQVKDHMTFDDYSNNLRGCYNGKDFPRWYLHKIYTSIKVKEIVMPEEHHGNERWFEDAWNNLISSTSVMTEMQRDFTNPISKLAQIDILQYEKAIFSNVRDIILKTLFKIFTVASSDQISLRILDAISKCTFINYYFSFDQSYNDTVLHLGEMTTLAQSSAKAVELDVDSIPLVEIFVEDTGSKISVSNQSIRLGQNFKAQLCTVLYFQIIKEISDPSIVSTRLWNQIVQLILKLFENLLMEPNLPFFTNFHSLLKLPELPLPDPDISIRKAKMSRSLLSTFASYLKGDEEPSEEDIDFSIKAFECVKASHPLSSVFENNQLVSPKMIETLLSSLVIEKTSENSPYFEQELLFLLEISIILISEASYGQEFGALIADHMINISNLDGLSKEAIARLASYKMFLVSRFDNPRDILSDLIEHDFLVKNEIFNTKYYESEWGKQVINDLFTHLNDVKYNERALKNVKFWNFLRILISAKDRQFAVYTFLEKYIQNGDIFVDDGNFMNILSLLDEMSCAGAVGTKWEQNYENSVEDGCEAPESNPYRSIIDLSSRSINITADLLSTVGRSNSALNKNEIIAAIQGLAHQCLNPCDELGMQALQALENILLSRASQLRTEKVAVDNLLETGLLPIFELDEIQDVKMKRITSILSVLSKIFLGQLVEGVTSNETFLRVLNVFNKYVDDPTVERQLQELIISKREIEKE

binding: binds
B2: Snf1p (found in the capture from lysates of starved yeast) (protein, UniProt P06782 1-633)
chain: MSSNNNTNTAPANANSSHHHHHHHHHHHHHGHGGSNSTLNNPKSSLADGAHIGNYQIVKTLGEGSFGKVKLAYHTTTGQKVALKIINKKVLAKSDMQGRIEREISYLRLLRHPHIIKLYDVIKSKDEIIMVIEYAGNELFDYIVQRDKMSEQEARRFFQQIISAVEYCHRHKIVHRDLKPENLLLDEHLNVKIADFGLSNIMTDGNFLKTSCGSPNYAAPEVISGKLYAGPEVDVWSCGVILYVMLCRRLPFDDESIPVLFKNISNGVYTLPKFLSPGAAGLIKRMLIVNPLNRISIHEIMQDDWFKVDLPEYLLPPDLKPHPEEENENNDSKKDGSSPDNDEIDDNLVNILSSTMGYEKDEIYESLESSEDTPAFNEIRDAYMLIKENKSLIKDMKANKSVSDELDTFLSQSPPTFQQQSKSHQKSQVDHETAKQHARRMASAITQQRTYHQSPFMDQYKEEDSTVSILPTSLPQIHRANMLAQGSPAASKISPLVTKKSKTRWHFGIRSRSYPLDVMGEIYIALKNLGAEWAKPSEEDLWTIKLRWKYDIGNKTNTNEKIPDLMKMVIQLFQIETNNYLVDFKFDGWESSYGDDTTVSNISEDEMSTFSAYPFLHLTTKLIMELAVNSQSN

binding: binds
B3: Lte1p (protein, UniProt P07866 1-1435)
chain: MEIFSQKDYYPTPSSNVISYESDCVSKPVNSADLPALIVHLSSPLEGVDYNASADFFLIYRNFITPQDLHDLLIYRFRWCIREITTNAAKAKRRRIGEVALVRTFVLLRHSILNYFVQDFLPNITLRLRLIEFLNDKHIEQYPKIISSCIINLKKNWVHCSKLVWENIELNEPDKLDFDAWLHYSLKDFTQLESLHKRGSRLSIYARQSFASPDFRNQSVLSLYKTSDVFRLPEKLQSSNSSKNQRSPSMLLFPDNTSNVYSKHRIAKEPSVDNESEDMSDSKQKISHLSKVTLVSTLMKGVDYPSSYAVDKIMPPTPAKKVEFILNSLYIPEDLNEQSGTLQGTSTTSSLDNNSNSNSRSNTSSMSVLHRSAIGLLAKWMKNHNRHDSSNDKKFMSAIKPANQKPEMDAFVKYVVSISSLNRKSSKEEEEEFLNSDSSKFDILSARTIDEVESLLHLQNQLIEKVQTHSNNNRGPTVNVDCERREHIHDIKILQQNSFKPSNDNFSAMDNLDLYQTVSSIAQSVISLTNTLNKQLQNNESNMQPSPSYDALQRRKVKSLTTAYYNKMHGSYSAESMRLFDKDNSSSRTDENGPQRLLFHETDKTNSEAITNMTPRRKNHSQSQKSMTSSPLKNVLPDLKESSPLNDSREDTESITYSYDSELSSSSPPRDTVTKKSRKVRNIVNNTDSPTLKTKTGFLNLREFTFEDTKSLDEKKSTIDGLEKNYDNKENQESEYESTKKLDNSLDASSEANNYDITTRKKHSSCNHKIKQAVVRPASGRISISRVQSIAITPTKELSIVDPEQNKSNSVIEEISEIEPLNLEYNKKSALYSDTSSTVISISTSKLFESAQNSPLKQTQNPQREFPNGTSVSETNRIRLSIAPTIESVVSDLNSITTGSTVETFETSRDLPVPHQRIINLREEYQRGNQDIISNTSSLHELKTIDLSDSNNDLESPSTHAKNNKYFFSPDDGSIDVASPMKNVEELKSKFLKNESETNSNISGSVLTMDDIDINDTSSARNTRRANSESAFTGSLNKKNLNEIANMLDDSINDDPITVALMKLEGTYEKIPEKPENTKSSDAIGIKTSKLADEVEMLNLNNLPSFQNSPAEKRKSLLIERRRQTIMNIPFTPDQSEKEGFTSSSPEKIDVSANVDVAVQAAQIQELIGQYRIHDSRLMISNNESHVPFILMYDSLSVAQQMTLIEKEILGEIDWKDLLDLKMKHEGPQVISWLQLLVRNETLSGIDLAISRFNLTVDWIISEILLTKSSKMKRNVIQRFIHVADHCRTFQNFNTLMEIILALSSSVVQKFTDAWRLIEPGDLLTWEELKKIPSLDRNYSTIRNLLNSVNPLVGCVPFIVVYLSDLSANAEKKDWILEDKVVNYNKFDTNVQIVKNFIQRVQWSKFYTFKVNHELLSKCVYISTLTQEEINELST

binding: binds
B4: Rom2p (protein, UniProt P51862 1-1356)
chain: MSETNVDSLGDRNDIYSQIFGVERRPDSFATFDSDSHGDISSQLLPNRIENIQNLNVLLSEDIANDIIIAKQRRRSGVEAAIDDSDIPNNEMKGKSSNYILSQQTNIKEVPDTQSLSSADNTPVSSPKKARDATSSHPIVHAKSMSHIYSTSNSASRQAKHYNDHPLPPMSPRNEVYQKNKSTTAFVPKRKPSLPQLALAGLKKQSSFSTGSASTTPTQARKSPLQGFGFFSRPSSKDLHEQHQHHQHIQHNNINNHNNNNTNNNGAHYQVGSSNSNYPQHSHSISSRSMSLNSSTLKNIASSFQSKTSNSRKATQKYDITSNPFSDPHHHHHHHHSSNSHSSLNNVHGSGNSSSVMGSSSNIGLGLKTRVSSTSLALKRYTSVSGTSLSSPRRSSMTPLSASRPVMSASSKKPQVYPALLSRVATKFKSSIQLGEHKKDGLVYRDAFTGQQAVDVICAIIRTSDRNLALLFGRSLDAQKLFHDVVYEHRLRDSPHEVYEFTDNSRFTGTGSTNAHDPLMLLPNSSSFNSGNHSYPNSGMVPSSSTSSLNSDQATLTGSRLHMSSSLSQQKNPAAIHNVNGVFTLLAECYSPTCTRDALCYSISCPRRLEQQARLNLKPNGGLKRNISMALDDDDEEKPSWTSSVSKEDWENLPKKEIKRQEAIYEVYITEKNFVKSLEITRDTFMKTLAETNIISADIRKNFIKHVFAHINDIYSVNRRFLKALTDRQRSSPVVRGIGDIVLRFIPFFEPFVSYVASRPYAKYLIETQRSVNPYFARFDDDMMSSSLRHGIDSFLSQGVSRPGRYMLLVKEIMKSTDPEKDKSDYEDLSKAMDALRDFMKRIDQASGAAQDRHDVKLLKQKILFKNEYVNLGLNDERRKIKHEGILSRKELSKSDGTVVGDIQFYLLDNMLLFLKAKAVNKWHQHKVFQRPIPLPLLFACPGEDMPALRKYIGDHPDCSGTVIQPEYNTSNPKNAITFLYYGAKQRYQVTLYAAQYAGLQTLLEKIKQGQAAIISKTEMFNVTKMSDRFFDYTNKINSVTSCDGGRKLLIATNSGLYMSNIKRQQNKDHRHKSSAFFSTPIQLVQRNNITQIAVLEEFKSIILLIDKKLYSCPLSLIEAEGNGTSFFKKHHKELINHVSFFAEGDCNGKRLIVTAHSSSHSIKYFEHEHPLLAEKNGSGSGNKKSLKKKITEVIFDSEPVSISFLKANLCIGCKKGFQIVSISQNAHESLLDPADTSLEFALRDTLKPMAIYRVGNMFLLCYTEFAFFVNNQGWRKKESHIIHWEGEPQKFAIWYPYILAFDSNFIEIRKIETGELIRCVLADKIRLLQTSTQEILYCYEDYRGYDTVASLDFWG
